Assay results: patent US20240239881A1
No constants are given. Whether binding was seen depends on the method and setting. Some entries that bind do so weakly or less than the wild type.

Sequences of proteins named here, by UniProt entry; tags and fusion partners are left off. A change or cut given only in a name is not applied to a line headed by its entry.
UniProt O15123: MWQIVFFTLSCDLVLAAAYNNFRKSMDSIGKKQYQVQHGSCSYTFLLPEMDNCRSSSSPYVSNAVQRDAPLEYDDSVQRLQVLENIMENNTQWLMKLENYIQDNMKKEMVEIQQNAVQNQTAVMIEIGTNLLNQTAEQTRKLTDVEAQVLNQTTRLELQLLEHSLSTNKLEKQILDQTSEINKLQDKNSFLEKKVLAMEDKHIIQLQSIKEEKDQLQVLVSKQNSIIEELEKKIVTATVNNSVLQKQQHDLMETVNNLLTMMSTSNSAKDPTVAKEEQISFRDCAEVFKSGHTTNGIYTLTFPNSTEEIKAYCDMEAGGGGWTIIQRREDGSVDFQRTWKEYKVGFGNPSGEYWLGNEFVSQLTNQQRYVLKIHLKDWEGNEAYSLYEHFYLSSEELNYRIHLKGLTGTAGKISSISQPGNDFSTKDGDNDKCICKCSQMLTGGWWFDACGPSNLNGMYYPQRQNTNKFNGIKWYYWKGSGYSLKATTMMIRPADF

Biological target: recombinant biotinylated hAngiopoietin-2 protein (R&D, Cat. No.: BT623B/CF) (human) (UniProt O15123)
Test: ELISA, biotin Ang2 on coated streptavidin, anti-human IgG-HRP (FIG. 1B)

Row | Binder | binding
1 | chimeric antibody 81H10 (antibody, human IgG1, kappa, V domains shown) VH: EVKLEESGGGLVQPGGSMKLSCVASGFTFSNYWMNWVRQSPEKGLEWVAEIRLKSNNYATHYAESVKGRFTISRDVSKSSVYLQMNNLRTEDTGIYYCTDTAPFAYWGQGTLVTVSA VL: DIVMTQSHKFMSTSVGDRVSITCKASQDVGTDVAWYQQKPGQSPKLLIYWASTRHTGVPDRFTGSGSGTDFTLTISNVQSEDLSDYFCQQYSSYPLTFGGGTKLEIKR | binds
2 | humanized antibody hz81H10.4 (antibody, human IgG1, kappa, V domains shown) VH: EVQLVESGGGLVKPGGSLRLSCAASGFTFSNYWMNWVRQAPGKGLEWVAEIRLKSNNYATHYAESVKGRFTISRDVSKNTVYLQMNSLKTEDTAVYYCTDTAPFAYWGQGTLVTVSS VL: DIQMTQSPSSLSASVGDRVTITCKASQDVGTDVAWYQQKPGKAPKLLIYWASTRHTGVPSRFSGSGSGTDFTLTISSLQPEDFATYYCQQYSSYPLTFGGGTKVEIKR | binds
